Values quoted from earlier work as cited in patent US11266599B2, “Inhalable dry powder cytidine analogue composition and method of use as a treatment for cancer” (Lovelace Biomedical Research Institute, priority 2018, dated 2022).
Some results were stated once for a whole list of compounds, not compound by compound. At least one structure is not confirmed: it was looked up by name or label, or the drawing left a doubt.

Settings: myelodysplasia, liquid formulations; cited from earlier work

Q: Which “overall response rate (ORR)” value does the source give for `Nc1ncn([C@H]2C[C@H](O)[C@@H](CO)O2)c(=O)n1` [DAC, 5-aza-2′-deoxyazacytidine] here?
A: > 60%
